The whole screen tested about 580,000 compounds, of which about 6,100 (1.1%) were called active. This list was built around the results that the source calls inconclusive (neither active nor inactive); the mix of calls is not that of the screen. Calls follow the shape of the dose curve; as a rule, active = well fitted inhibition curve with a large enough effect; inconclusive = small, poorly fitted or top-dose-only effect, or another doubt; inactive = no such curve, though single readings can be large or run the other way. Where the call is inconclusive, the potency comes from a doubtful curve fit.
target: Polyunsaturated fatty acid lipoxygenase ALOX12 (Homo sapiens) (UniProt P18054); test: Primary qHTS assay for inhibitors of human arachidonate 12S-lipoxygenase (ALOX12): Round 2; settings: purified 12hLO, xylenol orange hydroperoxide absorbance; activity change, negative = inhibition: at 108 µM (top of the series) unless noted
In short: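 Hydroperoxide product was detected by ferrous iron/xylenol orange as the 573 to 405 nm absorbance ratio. Arachidonic acid at 40 uM (final) was turned over for 30 min at room temperature by 150 nM human 12hLO, pH 7.0 Hepes buffer, after 15 min compound preincubation.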
% is scaled to controls: 0 for no effect and ±100 for the full control effect; potency is read from the fitted curve at half-maximal effect.

Sequences of proteins named here, by UniProt entry; tags and fusion partners are left off. A change or cut given only in a name is not applied to a line headed by its entry.
UniProt P18054: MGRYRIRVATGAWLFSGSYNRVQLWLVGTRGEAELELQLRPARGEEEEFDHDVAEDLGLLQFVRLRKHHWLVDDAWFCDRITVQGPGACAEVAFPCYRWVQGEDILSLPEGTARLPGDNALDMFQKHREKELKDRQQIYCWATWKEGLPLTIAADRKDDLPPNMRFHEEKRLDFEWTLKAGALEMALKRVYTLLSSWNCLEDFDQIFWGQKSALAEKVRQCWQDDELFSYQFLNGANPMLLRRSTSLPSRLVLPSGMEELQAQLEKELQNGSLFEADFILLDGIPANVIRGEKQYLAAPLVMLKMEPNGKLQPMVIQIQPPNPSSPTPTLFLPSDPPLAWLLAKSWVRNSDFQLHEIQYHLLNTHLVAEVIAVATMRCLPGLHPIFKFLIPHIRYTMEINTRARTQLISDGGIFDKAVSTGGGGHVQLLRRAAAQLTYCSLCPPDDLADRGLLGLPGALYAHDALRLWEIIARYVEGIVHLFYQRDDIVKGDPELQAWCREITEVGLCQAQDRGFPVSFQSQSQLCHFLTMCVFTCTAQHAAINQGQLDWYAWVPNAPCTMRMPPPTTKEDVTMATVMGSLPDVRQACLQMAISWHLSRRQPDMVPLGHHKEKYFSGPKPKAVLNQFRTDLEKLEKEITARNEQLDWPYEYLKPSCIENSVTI

| SMILES | Potency | activity change, negative = inhibition |
| --- | --- | --- |
| CCOC(=O)Nc1ccc(S(=O)(=O)Nc2cccc(F)c2)cc1 | inconclusive: 25.1 µM [inhibitor, partial curve, poor fit] |  |
| Cc1cc(NC(=O)CCCn2nc(C)c([N+](=O)[O-])c2C)no1 | inactive |  |
| Nn1c(-c2ccco2)n[nH]c1=S | inconclusive: 1.58 µM [inhibitor, full curve, poor fit] |  |
| O=C(CSc1n[nH]c(=O)n1C1CC1)c1ccc2c(c1)OCCO2 | inconclusive: 126 µM [inhibitor, single point] |  |
| O=C(CCN=C1NS(=O)(=O)c2ccccc21)N(Cc1ccccc1F)C1CC1 | inactive |  |
| Cc1ccccc1-c1nccc(NCc2cccs2)n1 | inconclusive: 35.5 µM [inhibitor, partial curve] |  |
| O=C(NCc1ccccc1)C1CCC(CNS(=O)(=O)c2ccc(Br)s2)CC1 (configuration not stated) | inactive |  |
| CCOC(=O)c1cc(-c2csc(-c3ccc(C(F)(F)F)cc3)n2)on1 | inconclusive: 112 µM [inhibitor, single point] |  |
| CCN(CC)c1ccc(/C=N/c2sc(C)c(C)c2C#N)cc1 | inconclusive: 7.08 µM [inhibitor, full curve] |  |
| CCC(Sc1nc2ccncc2[nH]1)C(=O)Nc1ccc(C)cc1 (configuration not stated) | inconclusive: 1.58 µM [inhibitor, full curve, poor fit] |  |
| COc1ccc(-c2nc(CS(=O)CC(=O)NC3CCCC3)c(C)o2)cc1 (configuration not stated) | inactive |  |
| Cc1ccc(NCC(=O)Nc2ccc(F)c(Cl)c2)cc1S(=O)(=O)N1CCOCC1 | inactive |  |
| COc1nccnc1NS(=O)(=O)c1ccc(NC(=S)NC(=O)c2ccccc2)cc1 | active: 35.5 µM |  |
| Cc1cc(Cl)ccc1-c1ccc(C=O)o1 | inconclusive: 44.7 µM [inhibitor, partial curve, poor fit] |  |
| CC(=O)Oc1ccc2nc(/C=C/c3ccccc3)oc(=O)c2c1 | inactive |  |
| CCCN1C(=O)c2ccccc2NC1c1cc2ccccc2[nH]c1=O (configuration not stated) | inconclusive: 56.2 µM [inhibitor, partial curve, poor fit] |  |
| CC1(C)CC(CNCc2ccco2)CCO1 (configuration not stated) | inconclusive: 0.631 µM [inhibitor, full curve, poor fit] |  |
| O=C(COc1ccc(-n2cnnn2)cc1)N1CCN(S(=O)(=O)c2ccc3ccccc3c2)CC1 | active: 44.7 µM |  |
| Cc1ccc2cc(NC(=O)c3cccc(F)c3)ccc2n1 | inconclusive: 35.5 µM [inhibitor, single point] |  |
| Cc1ccc2ccccc2c1C(O)c1ncc(-c2ccccc2)[nH]1 (configuration not stated) | inconclusive: 79.4 µM [inhibitor, partial curve, poor fit] |  |
| CCOc1ccc(C(=O)Nc2ccc3oc(C)nc3c2)cc1OC | inconclusive: 35.5 µM [inhibitor, partial curve] |  |
| Cn1c(N)c(C(=O)COC(=O)CNS(=O)(=O)c2ccc(Cl)c(Cl)c2)c(=O)n(C)c1=O | inactive |  |
| Cn1c(C(=O)NCc2ccc3c(c2)OCO3)cc2sccc21 | inactive |  |

| SMILES | Potency | activity change, negative = inhibition |
| --- | --- | --- |
| Cc1cccc2cc(-c3nc(-c4cccnc4)no3)c(=O)oc12 | inactive |  |
| c1ccc2c(c1)CCN(Cc1nnnn1Cc1ccc3c(c1)OCO3)C2 | inconclusive: 31.6 µM [inhibitor, partial curve, poor fit] |  |
| Cc1cc(C)c(NC(=O)CSc2nnc3[nH]c(=O)cc(C)n23)c(C)c1 | inconclusive: 100 µM [inhibitor, single point] |  |
| COc1cc(C(=O)NC(=S)NCc2ccco2)cc(OC)c1OC | inconclusive: 141 µM [inhibitor, partial curve, poor fit] |  |
| COc1ccc2[nH]c(C)c(CCC(C)=O)c(=S)c2c1 | inconclusive: 7.08 µM [inhibitor, full curve] |  |
| CN1CCN(C2Cc3ccc(F)cc3Sc3cc(F)c(Cl)cc32)CC1 (configuration not stated) | inconclusive: 50.1 µM [inhibitor, partial curve, poor fit] |  |
| CC(C)(C)NC(=O)CC1C[C@H](C(=O)N2CCOCC2)[C@@]2(C)c3[nH]c4ccccc4c3CCN2C1=O (some centres not stated) | inactive |  |
| O=[S+]([O-])(Nc1nncs1)c1ccc2c(c1)OCCN(Cc1ccsc1)C2 | inconclusive: 56.2 µM [inhibitor, partial curve, poor fit] |  |
| CNc1nc(-c2cn(CCC#N)c3ccccc23)cs1 | inconclusive: 5.62 µM [inhibitor, full curve, poor fit] |  |
| Nc1nc(CN2CCN(C(=O)c3ccccc3Cl)CC2)nc2ccccc12 | inactive |  |
| CC(C)CC1OC(C(C)C)Cc2[nH]c(=S)[nH]c(=O)c21 (configuration not stated) | inconclusive: 0.447 µM [inhibitor, full curve, poor fit] |  |
| COC(=O)C1=C(C)N(Cc2cccc(C(F)(F)F)c2)C(=NCc2ccc(OC)cc2)NC1c1ccccc1 (configuration not stated) | inconclusive: 50.1 µM [inhibitor, partial curve, poor fit] |  |
| COC(=O)C1=CN(C(C)C)C=C(C(=O)OC)C1c1cccc(OC)c1 | inactive |  |
| NC(=O)c1ccc(NC(=O)COC(=O)CNC(=O)c2sc3ccccc3c2Cl)cc1 | inconclusive: 126 µM [inhibitor, partial curve, poor fit] |  |
| COc1cccc(CN2CCNC(=O)C2CC(=O)NCC(C)(C)N2CCOCC2)c1OC (configuration not stated) | inconclusive: 31.6 µM [inhibitor, single point] |  |
| O=C(CSCc1cccc(CSCC(=O)Nc2ccc3ccccc3c2)n1)Nc1ccc2ccccc2c1 | inconclusive: 89.1 µM [inhibitor, single point] |  |
| CCOC(=O)C1CCN(C(=O)CSc2c3c(nc4ccc(Cl)cc24)CCCC3)CC1 |  | inconclusive: -37.1% [inhibitor] |
| OCC1CCCCC1CN1CCNCC1 (configuration not stated) | inactive |  |
| COC(=O)/C=C1/SC(=NC(=O)c2ccc(F)cc2)NC1=O | inconclusive: 22.4 µM [inhibitor, partial curve, poor fit] |  |
| Cc1nc(Cn2cnc3scc(-c4ccccc4)c3c2=O)no1 | inactive |  |
| Cc1cc(NC(=S)N(Cc2ccc(Br)cc2)Cc2ccc(C(=O)O)cc2)ccc1Cl | active: 44.7 µM |  |
| Cc1cnc(C(=O)OC(C(=O)Nc2cc(C(F)(F)F)ccc2Cl)c2ccccc2)cn1 (configuration not stated) | inconclusive: 44.7 µM [inhibitor, partial curve, poor fit] |  |
| COc1ccc([C@H]2Cc3cc(O)cc(O)c3C(=O)O2)cc1O | active: 22.4 µM |  |

Record cards (already shown).
Cc1cccc2cc(-c3nc(-c4cccnc4)no3)c(=O)oc12 as listed: Potency: inactive
COc1cccc(CN2CCNC(=O)C2CC(=O)NCC(C)(C)N2CCOCC2)c1OC (configuration not stated) as listed: Potency: inconclusive: 31.6 µM [inhibitor, single point]
O=[S+]([O-])(Nc1nncs1)c1ccc2c(c1)OCCN(Cc1ccsc1)C2 as listed: Potency: inconclusive: 56.2 µM [inhibitor, partial curve, poor fit]
COC(=O)/C=C1/SC(=NC(=O)c2ccc(F)cc2)NC1=O as listed: Potency: inconclusive: 22.4 µM [inhibitor, partial curve, poor fit]

Continued:

| SMILES | Potency | activity change, negative = inhibition |
| --- | --- | --- |
| C=CCn1cc(CN(Cc2ccco2)Cc2cccs2)c(C)n1 | active: 12.6 µM |  |
| CCOC(=O)c1cnc(SC)nc1Oc1cccc(NC(=O)c2ccc(Cl)cc2)c1 | inactive |  |
| OC(c1ccccc1)(c1ccccc1)C1CCN(CCCOc2ccc(-c3ccncc3)cc2)CC1 | inconclusive: 79.4 µM [inhibitor, partial curve, poor fit] |  |
| CC(=O)C1(C)CC2(CC(COCC(C)C)OC2=O)C(=O)O1 (configuration not stated) | inconclusive: 39.8 µM [inhibitor, partial curve, poor fit] |  |
| CC(C)c1ccc(NS(=O)(=O)c2ccc3[nH]c(=O)ccc3c2)cc1 | inconclusive: 112 µM [inhibitor, partial curve, poor fit] |  |
| CCCn1nc(S(=O)(=O)N2CCCC2)c(C(=O)OCC)c1C | active: 11.2 µM |  |
| CCn1c2c(c(=O)n1Cc1ccccc1)CCN(C(=O)CCc1ccccn1)C2 | inconclusive: 10 µM [inhibitor, partial curve, poor fit] |  |
| C=CCSc1nc2c(c(=O)[nH]c(=O)n2C)n1CCCCCC | inconclusive: 50.1 µM [inhibitor, partial curve, poor fit] |  |
| CCN(CC)C(=O)C1=C(C)N(Cc2ccc(F)cc2)C(=O)C(CC(=O)NCc2cccc3ccccc23)C1 (configuration not stated) | inconclusive: 79.4 µM [inhibitor, partial curve, poor fit] |  |
| CCN(CC)C(=O)[C@@H]1C[C@H](NC(=O)c2cc(C)no2)CN1Cc1ccco1 | inconclusive: 8.91 µM [inhibitor, full curve] |  |
| COc1ccc(C2NC(=O)N(CC(=O)NC(C)C)C3=C2C(=O)OC3)cc1 (configuration not stated) | inactive |  |
| CCN(C(C)=O)C1CCN(c2nc(CCN)nc3sc(C)c(C)c23)C1 (configuration not stated) | inconclusive: 20 µM [inhibitor, full curve, poor fit] |  |
| CC(N)=Nc1ccc([N+](=O)[O-])cc1 | inactive |  |
| CC(C)c1nc2c(c(-c3ccc(O)cc3)n1)CN(C(=O)Nc1ccccc1)CC2 | inconclusive: 89.1 µM [inhibitor, single point] |  |
| O=S(=O)(c1ccccc1)c1nc(-c2ccco2)oc1NCCCN1CCOCC1 | inconclusive: 17.8 µM [inhibitor, partial curve, poor fit] |  |
| S=C(NC1CCCCC1)c1ccc2c(c1)OCO2 | inconclusive: 31.6 µM [inhibitor, partial curve] |  |
| N#Cc1nc(-c2ccc(S(=O)(=O)N3CCCCC3)cc2)oc1NCc1ccc2c(c1)OCO2 | inconclusive: 0.282 µM [inhibitor, full curve, poor fit] |  |
| CN(CC1CCCN(CCc2cccc(C(F)(F)F)c2)C1)C(=O)c1ccco1 (configuration not stated) | inconclusive: 44.7 µM [inhibitor, partial curve, poor fit] |  |
| COc1ccc(C2NC(=O)C(C#N)=C(S)N2c2ccc(C)cc2)cc1OC (configuration not stated) | inconclusive: 4.47 µM [inhibitor, partial curve, poor fit] |  |
| Cn1c(N)c(C(=O)CSc2nnc(C3CC3)n2Cc2ccccc2)c(=O)n(C)c1=O | inconclusive: 39.8 µM [inhibitor, partial curve, poor fit] |  |

Source: PubChem BioAssay AID1671190 (National Center for Advancing Translational Sciences (NCATS), 2021)
